# Laboratory results: PubChem BioAssay AID330 (DTP/NCI, 2004)
# The list shows only some results of the screen, not a fair sample: it gathers tests that were run many times, whatever their T/C, doses with no T/C, and many T/C values between a quarter and a half above the control. Other doses and runs of a compound stand elsewhere. T/C: endpoint of the treated group in % of that of the vehicle group. Some doses have a count of surviving animals in place of a T/C: the source files T/C as zero there, which appears to mark a toxic dose or a test without result, not a measured value. Some doses without a T/C left all or most animals alive at the check, yet need not have been tolerated: the source hardly ever lists a survival T/C far under the control, and the zero likely stands for such cases as well. Counts of survivors are from the toxicity check (mostly the fifth day) where no day follows; animals may have died later. Schedules are NCI's codes, taken here to give the interval after Q, in days (D) or hours (H), and the number of doses after X. Some entries hold several experiments; the results are listed from low to high. Some molecules as drawn cover several salts, stereoisomers or complexes of the source; a dose is that of the sample tested. For survival time, this PubChem deposit counts one and a half times the control or more as active, and values a quarter to a half above the control carry no call in these data; other NCI protocols may use other cut-offs.
# Test system: P388 leukemia ip, CD2F1 mice, survival T/C
# Experiment: NCI In Vivo Anticancer Drug Screen. Data for tumor model P388 Leukemia (intraperitoneal) in CD2F1 (CDF1) mice
# Details: T/C endpoint: median survival time, higher T/C = longer survival
# [1] = dose: 200.0 mg/kg/injection, schedule: Q04DX003 (ip), vehicle: saline with Tween-80
# [2] = dose: 240.0 mg/kg/injection, schedule: Q01DX005 (ip), vehicle: saline
# [3] = dose: 50.0 mg/kg/injection, schedule: Q01DX009 (ip), vehicle: saline with Tween-80
# [4] = dose: 100.0 mg/kg/injection, schedule: Q01DX009 (ip), vehicle: saline with Tween-80
# [5] = dose: 200.0 mg/kg/injection, schedule: Q01DX009 (ip), vehicle: saline with Tween-80
# [6] = dose: 50.0 mg/kg/injection, schedule: Q01DX009 (ip), vehicle: Klucel (hydroxypropylcellulose) (HPC)
# [7] = dose: 120.0 mg/kg/injection, schedule: Q01DX005 (ip), vehicle: saline with Tween-80
# [8] = dose: 100.0 mg/kg/injection, schedule: Q01DX005 (ip), vehicle: saline with Tween-80
# [9] = dose: 240.0 mg/kg/injection, schedule: Q01DX005 (ip), vehicle: saline with Tween-80
# [10] = dose: 240.0 mg/kg/injection, schedule: Q01DX005 (ip), vehicle: Klucel (hydroxypropylcellulose) (HPC)
structure (smiles),measurement,setting,value
O=C(C=C(C(F)(F)F)C(F)(F)F)c1ccc(C(=O)C=C(C(F)(F)F)C(F)(F)F)cc1,survivor count,[1],5 of 6
CCN(CC)CCNc1ccccc1,survivor count,[2],0 of 6
COc1ccc(OC)c(NC=O)c1,survivor count,"dose: 12.5 mg/kg/injection, schedule: Q01DX009 (ip), vehicle: saline with Tween-80",6 of 6
same,survivor count,[3],6 of 6
CN1CCC(CN2c3ccccc3Sc3ccccc32)C1 (stereo not drawn),survivor count,[4],0 of 6
C/C=C(\C(=O)O)S(=O)(=O)O.[Pb],survivor count,[4],2 of 6
Cc1ccc(S(=O)(=O)N/N=C/C=N/NS(=O)(=O)c2ccc(C)cc2)cc1,survivor count,"dose: 400.0 mg/kg/injection, schedule: Q01DX009 (ip), vehicle: other",6 of 6
C/C(O)=C(/N=Nc1ccc(-c2nc3ccc(C)c(S(=O)(=O)O)c3s2)cc1)C(=O)Nc1ccccc1,survivor count,[3],6 of 6
same,survivor count,[4],6 of 6
same,survivor count,[5],6 of 6
ClCCN(CCCl)CCNc1ccnc2cc(Cl)ccc12,survivor count,"dose: 0.4 mg/kg/injection, schedule: Q01DX009 (ip), vehicle: saline",6 of 6
same,T/C,"dose: 1.32 mg/kg/injection, schedule: Q04DX003 (ip), vehicle: saline",127 % of control
same,T/C,"dose: 2.0 mg/kg/injection, schedule: Q01DX009 (ip), vehicle: saline sonified",136 % of control
same,T/C,"dose: 3.0 mg/kg/injection, schedule: Q04DX003 (ip), vehicle: saline",127 % of control
C=C1C(=O)O[C@@H]2C[C@@H](C)[C@@H]3C=CC(=O)[C@@]3(C)[C@@H](OC(=O)CCCC(=O)O[C@H]3[C@@H]4C(=C)C(=O)O[C@@H]4C[C@@H](C)[C@@H]4C=CC(=O)[C@]43C)[C@H]12,survivor count,"dose: 6.25 mg/kg/injection, schedule: Q01DX005 (ip), vehicle: Klucel (hydroxypropylcellulose) (HPC)",3 of 6
same,survivor count,"dose: 12.5 mg/kg/injection, schedule: Q01DX005 (ip), vehicle: Klucel (hydroxypropylcellulose) (HPC)",0 of 6
same,survivor count,"dose: 25.0 mg/kg/injection, schedule: Q01DX005 (ip), vehicle: Klucel (hydroxypropylcellulose) (HPC)",0 of 6
O=c1ssc(=Nc2ccccc2)n1-c1ccccc1,T/C,[6],129 % of control
same,T/C,"dose: 400.0 mg/kg/injection, schedule: Q01DX009 (ip), vehicle: Klucel (hydroxypropylcellulose) (HPC)",127 % of control
Cc1nn(C)c(Cl)c1C(=O)Nc1ccccc1,survivor count,[7],0 of 6
NC(Cc1cccc(F)c1)c1nn[nH]n1 (stereo not drawn),survivor count,[1],0 of 6
C=C1CC[C@]2(C)CC[C@]3(C)C4=CC=C5C(=CC(=O)C(O)=C5C)[C@]4(C)CC[C@@]3(C)[C@@H]2C1,survivor count,"dose: 0.12 mg/kg/injection, schedule: Q01DX009 (ip), vehicle: saline with Tween-80",6 of 6
same,survivor count,"dose: 0.38 mg/kg/injection, schedule: Q01DX009 (ip), vehicle: none",6 of 6
same,T/C,"dose: 0.75 mg/kg/injection, schedule: Q01DX009 (ip), vehicle: none",125 % of control
same,T/C,"dose: 1.0 mg/kg/injection, schedule: Q01DX009 (ip), vehicle: none",147 % of control
same,survivor count,"dose: 1.0 mg/kg/injection, schedule: Q01DX009 (ip), vehicle: saline with Tween-80",6 of 6
same,survivor count,"dose: 2.0 mg/kg/injection, schedule: Q01DX009 (ip), vehicle: saline with Tween-80",5 of 6
same,survivor count,"dose: 4.0 mg/kg/injection, schedule: Q01DX009 (ip), vehicle: saline with Tween-80",0 of 6
same,survivor count,"dose: 8.0 mg/kg/injection, schedule: Q01DX009 (ip), vehicle: saline with Tween-80",0 of 6
CCC(CO)N=C(C1=C(O)c2ccccc2C1=O)c1ccccc1 (stereo not drawn),survivor count,"dose: 400.0 mg/kg/injection, schedule: Q04DX002 (ip), vehicle: saline with Tween-80",3 of 6
CCCCCCCCCCCCCCCCCC[N+](C)(C)C (tested in a mixture with another compound),survivor count,"dose: 6.0 mg/kg/injection, schedule: Q01DX009 (ip), vehicle: saline with Tween-80",6 of 6
same,survivor count,"dose: 25.0 mg/kg/injection, schedule: Q01DX009 (ip), vehicle: saline",6 of 6
CC(=O)C[n+]1ccccc1Cc1ccccc1,survivor count,[8],2 of 5
CNC(C)(C(=O)O)C(=O)Nc1ccccc1 (stereo not drawn),T/C,"dose: 400.0 mg/kg/injection, schedule: Q01DX001 (ip), vehicle: saline",130 % of control
O=C(NCCCCCCCNC(=O)C12CC3CC(CC(C3)C1)C2)C12CC3CC(CC(C3)C1)C2,survivor count,[8],6 of 6
same,survivor count,"dose: 200.0 mg/kg/injection, schedule: Q01DX005 (ip), vehicle: saline with Tween-80",6 of 6
CCOC(=O)CC(CS(=O)CP(=O)(OCC)OCC)C(=O)OCC (stereo not drawn),survivor count,[7],0 of 6
same,survivor count,[9],0 of 6
OC1CC2CCC(C1)N2 (stereo not drawn),survivor count,[2],4 of 6
CCOC(=O)N/N=C(\C)c1nc2ccccc2[nH]1,survivor count,"dose: 120.0 mg/kg/injection, schedule: Q01DX005 (ip), vehicle: Klucel (hydroxypropylcellulose) (HPC)",2 of 6
same,survivor count,[10],0 of 6
Cc1cc(N(CCOS(C)(=O)=O)CCOS(C)(=O)=O)ccc1C=Nc1ccc(-c2csc(-c3ccccc3)n2)c(Cl)c1,T/C,"dose: 25.0 mg/kg/injection, schedule: Q01DX009 (ip), vehicle: Klucel (hydroxypropylcellulose) (HPC)",140 % of control
same,T/C,[6],"125, 127, 135 % of control"
same,survivor count,"dose: 200.0 mg/kg/injection, schedule: Q01DX009 (ip), vehicle: Klucel (hydroxypropylcellulose) (HPC)",5 of 6 and 6 of 6
CS/N=N/N=C(\c1ccccc1)N1CCOCC1,survivor count,[9],0 of 6
N=C(N)c1ccc(OCCCCOc2ccc(N)cc2)cc1,survivor count,[10],0 of 6
Cc1cc(NN=O)nc(C)n1,T/C,"dose: 100.0 mg/kg/injection, schedule: Q01DX009 (ip), vehicle: water",125 % of control
CN=C1c2ccccc2C2(c3ccccc3)C1N2C (stereo not drawn),survivor count,"dose: 400.0 mg/kg/injection, schedule: Q04DX003 (ip), vehicle: saline with Tween-80",1 of 6
Cc1cc(N/N=C/c2ccc3c(c2)OCO3)c2cc3c(cc2n1)OCO3,survivor count,"dose: 50.0 mg/kg/injection, schedule: Q01DX005 (ip), vehicle: Klucel (hydroxypropylcellulose) (HPC)",6 of 6
same,survivor count,"dose: 100.0 mg/kg/injection, schedule: Q01DX005 (ip), vehicle: Klucel (hydroxypropylcellulose) (HPC)",0 of 6
same,survivor count,"dose: 200.0 mg/kg/injection, schedule: Q01DX005 (ip), vehicle: Klucel (hydroxypropylcellulose) (HPC)",0 of 6
BrCC1(CBr)OCCO1,survivor count,[4],0 of 6
same,survivor count,[5],0 of 6
